This note sets out measurements from patent publication US11433068B2, “Treatment of cancers having alterations within the SWI/SNF chromatin remodeling complex” (THE GENERAL HOSPITAL CORPORATION, priority 2016, dated 2022).

The subject of the test is melanoma cells. Kind of test: G9a inhibitors used in combination with HDAC, BRD or BRAF inhibitors. The following applies: SAHA in combination with G9a inhibitors, used concurrently. Format: cell-based. From the text:
Histone deacetylases (HDAC) are enzymes that catalyze the removal of acetyl groups from lysine residues. This promotes a more condensed configuration of the chromatin structure, correlating with transcriptional silencing. HDAC inhibitors reverse this effect and are already FDA approved for use in the clinic. Two HDAC inhibitors, vorinostat (SAHA) and romidepsin are currently used in dermatology and oncology for treatment of cutaneous T cell lymphoma.
Bromodomains (BRDs) refer to protein domains that recognize acetylated lysine residues and participate in epigenetic signal transduction. Members of the BRD family such as BRD4 have been implicated in oncogenic mechanisms, and several BRD inhibitors have been developed. Presently, the BRD inhibitor I-BET-762 is undergoing clinical trials for oncological applications.
The role of BRAF in oncogenesis is well established, and multiple BRAF inhibitors are FDA-approved for advanced melanoma. BRAF is a serine/threonine-specific protein kinase that regulates the MAP kinase/ERK signaling pathway to control cell differentiation and proliferation. Many BRAF driver mutations have been identified to be important in human cancers, the most well-characterized of which is the BRAF (V600E) mutation.

In the case of `O=C(CCCCCCC(=O)Nc1ccccc1)NO` [SAHA, suberoylanilide hydroxamic acid], the “killing of melanoma cells” value is recorded as “enhanced killing of melanoma cells”.
